Measurements published in publication PMC6425864.
No constants are given. Whether binding was seen depends on the method and setting. Binding calls can cover weak binding; strength is not graded here.

Legend:
Experiment in all cases: peptide or protein array; customized MARCoNI array; a concentration series of each NR box peptide immobilised, incubated with 3 nM GR LBD in the absence of ligand (vehicle DMSO); detected with ALEXA488-conjugated anti-GST antibody; both purified
[1] = target: T1, ZNHI3_LxxLL101_89_111 (UniProt Q15649)
T1 sequence (peptide): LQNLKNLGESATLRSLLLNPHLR

[2] = target: T2, NRIP1_LxxLL713_700_722 (UniProt P48552)
T2 sequence (peptide): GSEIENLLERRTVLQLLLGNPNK

[3] = target: T3, NRIP1_LxxLL819_805_831 (UniProt P48552)
T3 sequence (peptide): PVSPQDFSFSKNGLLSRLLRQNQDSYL

[4] = target: T4, NRIP1_LxxLL380_368_390 (UniProt P48552)
T4 sequence (peptide): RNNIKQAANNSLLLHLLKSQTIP

[5] = target: T5, PPRB_LxxLL645_632_655 (UniProt Q15648)
T5 sequence (peptide): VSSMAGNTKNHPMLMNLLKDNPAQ

[6] = target: T6, NRIP1_LxxLL500_488_510 (UniProt P48552)
T6 sequence (peptide): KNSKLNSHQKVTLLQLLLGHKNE

[7] = target: T7, NRIP1_LxxLL266_253_275_C263S (UniProt P48552)
T7 sequence (peptide): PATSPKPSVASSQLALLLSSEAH

[8] = target: T8, NRIP1_LxxML1068_1055_1077 (UniProt P48552)
T8 sequence (peptide): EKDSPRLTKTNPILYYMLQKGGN

[9] = target: T9, NRIP1_LxxLL21_8_30 (UniProt P48552)
T9 sequence (peptide): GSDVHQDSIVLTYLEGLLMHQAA

[10] = target: T10, PRGC1_LxxLL144_130_155 (UniProt Q9UBK2)
T10 sequence (peptide): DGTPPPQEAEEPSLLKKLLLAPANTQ

[11] = target: T11, NRIP1_LxxLL185_173_195 (UniProt P48552)
T11 sequence (peptide): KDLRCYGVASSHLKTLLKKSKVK

[12] = target: T12, NRIP1_LxxLL936_924_946 (UniProt P48552)
T12 sequence (peptide): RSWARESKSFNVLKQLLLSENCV

Measured: binding

Purified Glucocorticoid Receptor Recombinant Human Protein, Ligand Binding Domain (domain or fragment)
binds: all assays above
